Results from the supplement of paper PMC10849652.
The list shows a part of the results.

By UniProt entry, the sequences of proteins in these tests, tags left out. Where a name states a change or a piece, a line headed by the entry shows the natural chain unless it says otherwise.
UniProt Q96RE7: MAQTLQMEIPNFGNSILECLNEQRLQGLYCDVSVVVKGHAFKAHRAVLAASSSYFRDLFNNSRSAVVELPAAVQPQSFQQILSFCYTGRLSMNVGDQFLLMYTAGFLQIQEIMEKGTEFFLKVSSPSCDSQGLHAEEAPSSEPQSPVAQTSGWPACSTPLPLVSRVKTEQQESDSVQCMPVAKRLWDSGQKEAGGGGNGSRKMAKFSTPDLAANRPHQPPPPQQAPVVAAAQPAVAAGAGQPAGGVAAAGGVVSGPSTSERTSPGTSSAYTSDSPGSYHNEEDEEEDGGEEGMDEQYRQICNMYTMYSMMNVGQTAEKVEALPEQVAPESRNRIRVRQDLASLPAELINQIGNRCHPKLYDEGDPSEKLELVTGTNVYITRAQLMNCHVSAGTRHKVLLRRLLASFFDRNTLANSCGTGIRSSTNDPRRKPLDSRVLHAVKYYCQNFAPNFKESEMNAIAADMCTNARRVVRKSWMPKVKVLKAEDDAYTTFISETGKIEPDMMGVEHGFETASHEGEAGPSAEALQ
UniProt Q13459: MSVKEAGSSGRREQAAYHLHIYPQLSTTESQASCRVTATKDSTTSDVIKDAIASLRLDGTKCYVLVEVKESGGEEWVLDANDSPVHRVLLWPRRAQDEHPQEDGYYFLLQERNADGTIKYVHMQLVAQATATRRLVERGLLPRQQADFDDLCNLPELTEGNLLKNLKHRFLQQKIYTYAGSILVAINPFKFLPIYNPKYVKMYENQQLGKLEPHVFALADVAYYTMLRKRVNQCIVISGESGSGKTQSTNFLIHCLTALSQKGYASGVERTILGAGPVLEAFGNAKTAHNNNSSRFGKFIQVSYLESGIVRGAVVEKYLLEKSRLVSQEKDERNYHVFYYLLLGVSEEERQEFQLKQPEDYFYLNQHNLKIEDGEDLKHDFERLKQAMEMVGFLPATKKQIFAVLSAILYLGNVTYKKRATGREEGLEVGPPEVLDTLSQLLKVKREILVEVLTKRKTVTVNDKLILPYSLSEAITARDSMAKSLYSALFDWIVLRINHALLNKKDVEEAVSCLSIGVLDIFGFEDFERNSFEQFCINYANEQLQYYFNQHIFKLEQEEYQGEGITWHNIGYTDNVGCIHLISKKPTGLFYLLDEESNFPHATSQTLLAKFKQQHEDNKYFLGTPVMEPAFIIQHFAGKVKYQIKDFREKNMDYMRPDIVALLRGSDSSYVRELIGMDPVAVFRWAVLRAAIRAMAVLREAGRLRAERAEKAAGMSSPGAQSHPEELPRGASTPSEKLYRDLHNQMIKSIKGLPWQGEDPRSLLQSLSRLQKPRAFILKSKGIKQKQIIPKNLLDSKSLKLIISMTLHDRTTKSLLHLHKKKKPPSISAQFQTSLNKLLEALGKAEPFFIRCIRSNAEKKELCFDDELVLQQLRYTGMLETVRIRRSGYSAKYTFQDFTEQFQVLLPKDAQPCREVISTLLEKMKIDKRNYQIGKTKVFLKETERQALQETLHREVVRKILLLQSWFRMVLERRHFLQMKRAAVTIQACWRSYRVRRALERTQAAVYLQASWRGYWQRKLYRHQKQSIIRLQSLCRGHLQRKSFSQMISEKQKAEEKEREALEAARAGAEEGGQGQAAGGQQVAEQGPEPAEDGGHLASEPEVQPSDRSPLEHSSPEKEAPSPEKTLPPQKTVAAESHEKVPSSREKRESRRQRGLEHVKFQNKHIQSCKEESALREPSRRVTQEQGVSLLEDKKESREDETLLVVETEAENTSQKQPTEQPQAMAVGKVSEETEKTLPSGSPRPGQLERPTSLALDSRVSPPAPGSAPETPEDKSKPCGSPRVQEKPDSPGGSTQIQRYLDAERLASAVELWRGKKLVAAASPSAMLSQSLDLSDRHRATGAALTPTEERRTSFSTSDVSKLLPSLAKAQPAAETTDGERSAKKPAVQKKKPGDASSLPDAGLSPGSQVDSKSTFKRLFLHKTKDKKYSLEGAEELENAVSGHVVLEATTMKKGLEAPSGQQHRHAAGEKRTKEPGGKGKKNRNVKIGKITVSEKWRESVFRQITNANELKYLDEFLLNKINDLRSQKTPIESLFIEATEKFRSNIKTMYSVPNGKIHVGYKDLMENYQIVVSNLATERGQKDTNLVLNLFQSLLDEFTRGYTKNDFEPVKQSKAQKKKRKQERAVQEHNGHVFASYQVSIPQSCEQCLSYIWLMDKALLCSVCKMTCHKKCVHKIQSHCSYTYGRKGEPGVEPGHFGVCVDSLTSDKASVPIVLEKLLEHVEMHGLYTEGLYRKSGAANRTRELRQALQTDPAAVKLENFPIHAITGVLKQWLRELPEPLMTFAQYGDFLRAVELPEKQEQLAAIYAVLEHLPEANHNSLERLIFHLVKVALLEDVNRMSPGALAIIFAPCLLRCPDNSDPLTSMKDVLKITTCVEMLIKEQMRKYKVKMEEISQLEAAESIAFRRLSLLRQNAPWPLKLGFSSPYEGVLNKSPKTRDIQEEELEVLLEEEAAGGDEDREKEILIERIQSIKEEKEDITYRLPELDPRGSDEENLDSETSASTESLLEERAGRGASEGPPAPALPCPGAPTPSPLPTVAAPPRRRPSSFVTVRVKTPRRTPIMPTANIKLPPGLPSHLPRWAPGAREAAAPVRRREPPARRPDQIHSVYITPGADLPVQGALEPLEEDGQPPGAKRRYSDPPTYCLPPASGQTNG
UniProt Q9UHQ1: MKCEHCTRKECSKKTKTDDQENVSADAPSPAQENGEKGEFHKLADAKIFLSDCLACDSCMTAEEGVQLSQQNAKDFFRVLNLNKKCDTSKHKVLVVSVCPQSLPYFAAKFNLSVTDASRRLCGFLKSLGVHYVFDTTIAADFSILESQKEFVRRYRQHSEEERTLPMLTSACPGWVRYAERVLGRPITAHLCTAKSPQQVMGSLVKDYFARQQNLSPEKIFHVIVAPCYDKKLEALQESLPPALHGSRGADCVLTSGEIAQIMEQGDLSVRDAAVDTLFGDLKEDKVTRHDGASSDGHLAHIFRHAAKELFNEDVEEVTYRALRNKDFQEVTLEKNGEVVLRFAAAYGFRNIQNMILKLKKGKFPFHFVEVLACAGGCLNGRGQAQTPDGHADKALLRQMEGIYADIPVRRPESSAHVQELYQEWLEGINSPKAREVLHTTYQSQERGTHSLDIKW
UniProt Q92614: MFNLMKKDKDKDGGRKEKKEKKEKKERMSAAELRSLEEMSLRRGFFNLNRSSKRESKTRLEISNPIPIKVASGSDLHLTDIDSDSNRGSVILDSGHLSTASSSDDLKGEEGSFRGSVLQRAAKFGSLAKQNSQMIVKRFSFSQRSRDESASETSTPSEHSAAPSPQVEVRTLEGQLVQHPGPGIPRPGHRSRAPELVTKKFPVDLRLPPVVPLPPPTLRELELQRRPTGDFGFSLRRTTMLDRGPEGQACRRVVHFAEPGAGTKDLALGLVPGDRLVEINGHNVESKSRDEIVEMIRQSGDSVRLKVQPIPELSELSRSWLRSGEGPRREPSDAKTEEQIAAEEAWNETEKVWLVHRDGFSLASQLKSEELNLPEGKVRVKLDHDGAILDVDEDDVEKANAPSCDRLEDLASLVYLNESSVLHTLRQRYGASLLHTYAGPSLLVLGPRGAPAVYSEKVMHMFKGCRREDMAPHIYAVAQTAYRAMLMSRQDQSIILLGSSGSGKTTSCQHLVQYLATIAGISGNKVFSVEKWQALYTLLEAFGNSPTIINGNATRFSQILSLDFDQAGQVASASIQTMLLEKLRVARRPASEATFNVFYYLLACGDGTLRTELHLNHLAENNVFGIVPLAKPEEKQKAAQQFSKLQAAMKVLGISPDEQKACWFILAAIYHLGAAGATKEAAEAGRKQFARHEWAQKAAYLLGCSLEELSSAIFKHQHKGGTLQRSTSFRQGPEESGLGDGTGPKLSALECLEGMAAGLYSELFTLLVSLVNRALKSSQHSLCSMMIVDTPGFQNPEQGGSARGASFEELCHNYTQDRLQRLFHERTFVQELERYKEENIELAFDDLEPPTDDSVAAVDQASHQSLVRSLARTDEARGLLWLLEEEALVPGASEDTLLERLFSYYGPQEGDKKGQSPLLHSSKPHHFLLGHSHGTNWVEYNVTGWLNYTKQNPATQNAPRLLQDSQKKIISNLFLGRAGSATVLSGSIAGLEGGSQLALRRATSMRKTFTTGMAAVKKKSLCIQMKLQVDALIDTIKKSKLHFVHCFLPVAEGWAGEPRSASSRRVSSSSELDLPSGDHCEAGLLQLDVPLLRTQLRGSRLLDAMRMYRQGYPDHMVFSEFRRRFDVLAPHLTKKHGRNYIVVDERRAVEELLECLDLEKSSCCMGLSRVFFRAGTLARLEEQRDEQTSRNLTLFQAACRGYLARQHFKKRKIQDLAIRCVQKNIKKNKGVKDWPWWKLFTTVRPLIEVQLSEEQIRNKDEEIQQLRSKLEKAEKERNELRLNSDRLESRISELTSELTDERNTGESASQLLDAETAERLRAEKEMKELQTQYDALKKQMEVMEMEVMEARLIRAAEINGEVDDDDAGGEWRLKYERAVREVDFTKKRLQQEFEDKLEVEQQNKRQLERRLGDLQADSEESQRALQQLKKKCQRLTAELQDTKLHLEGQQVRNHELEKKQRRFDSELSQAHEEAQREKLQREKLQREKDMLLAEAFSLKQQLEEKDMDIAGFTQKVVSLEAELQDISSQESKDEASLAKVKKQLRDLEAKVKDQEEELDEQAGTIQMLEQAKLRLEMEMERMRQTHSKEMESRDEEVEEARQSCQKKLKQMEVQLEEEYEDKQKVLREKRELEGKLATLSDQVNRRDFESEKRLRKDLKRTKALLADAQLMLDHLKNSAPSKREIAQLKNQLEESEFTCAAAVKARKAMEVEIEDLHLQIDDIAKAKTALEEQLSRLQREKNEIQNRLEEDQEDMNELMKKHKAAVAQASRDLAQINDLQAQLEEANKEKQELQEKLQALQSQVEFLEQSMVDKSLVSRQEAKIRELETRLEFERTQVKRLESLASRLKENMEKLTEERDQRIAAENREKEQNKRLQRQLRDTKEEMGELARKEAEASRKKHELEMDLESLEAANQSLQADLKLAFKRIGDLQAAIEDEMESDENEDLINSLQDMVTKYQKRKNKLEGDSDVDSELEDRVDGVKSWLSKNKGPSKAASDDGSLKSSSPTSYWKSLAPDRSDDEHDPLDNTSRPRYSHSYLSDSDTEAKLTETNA
UniProt Q96S97: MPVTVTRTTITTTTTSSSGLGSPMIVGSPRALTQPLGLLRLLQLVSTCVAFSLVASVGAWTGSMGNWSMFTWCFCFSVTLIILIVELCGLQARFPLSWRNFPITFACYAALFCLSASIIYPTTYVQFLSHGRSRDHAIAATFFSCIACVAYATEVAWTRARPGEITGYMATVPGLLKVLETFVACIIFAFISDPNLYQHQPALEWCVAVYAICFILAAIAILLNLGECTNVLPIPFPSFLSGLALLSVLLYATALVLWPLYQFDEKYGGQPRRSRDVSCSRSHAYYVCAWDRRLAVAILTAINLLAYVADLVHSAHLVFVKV
UniProt P62166, whole entry, looked up: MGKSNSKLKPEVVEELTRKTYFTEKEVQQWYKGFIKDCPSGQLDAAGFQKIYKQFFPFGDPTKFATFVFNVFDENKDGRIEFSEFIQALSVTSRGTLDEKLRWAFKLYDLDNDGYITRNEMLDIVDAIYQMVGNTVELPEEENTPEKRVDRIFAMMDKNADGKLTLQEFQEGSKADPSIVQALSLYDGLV
UniProt Q9HCD5: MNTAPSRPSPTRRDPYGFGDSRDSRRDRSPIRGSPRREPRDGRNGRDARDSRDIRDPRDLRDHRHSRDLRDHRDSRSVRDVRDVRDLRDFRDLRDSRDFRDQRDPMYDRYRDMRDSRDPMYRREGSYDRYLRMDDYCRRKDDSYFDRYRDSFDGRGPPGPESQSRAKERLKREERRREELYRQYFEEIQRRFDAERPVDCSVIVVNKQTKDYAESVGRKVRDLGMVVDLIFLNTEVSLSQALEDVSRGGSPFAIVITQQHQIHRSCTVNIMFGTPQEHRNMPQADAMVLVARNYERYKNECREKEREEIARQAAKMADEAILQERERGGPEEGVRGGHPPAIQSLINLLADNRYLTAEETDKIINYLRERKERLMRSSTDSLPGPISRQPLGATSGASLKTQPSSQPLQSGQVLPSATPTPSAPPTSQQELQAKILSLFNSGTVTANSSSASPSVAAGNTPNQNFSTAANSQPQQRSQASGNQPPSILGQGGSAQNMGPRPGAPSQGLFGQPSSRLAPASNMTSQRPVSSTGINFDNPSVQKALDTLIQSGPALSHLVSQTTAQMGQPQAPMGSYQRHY

Columns and labels:
Assay in all cases: log2 fold change, soluble protein after heating vs DMSO (PISA); higher = thermal stabilisation; K562 lysate, 10 uM; active = over 0.2 and 3.5 SD of the protein, either way, in both replicates (recomputed)
vemurafenib = compound: CCCS(=O)(=O)Nc1ccc(F)c(C(=O)c2c[nH]c3ncc(-c4ccc(Cl)cc4)cc23)c1F [vemurafenib]
How it was run: (§1)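 The values are log-two fold changes in thermal stability compared with solvent controls and come from duplicates. They were obtained by TMTpro 16plex LC-MS/MS, with channel sums equalised, on the supernatant after 21,000xg for 90 min. That supernatant came from crude K562 extract at 1 mg/mL protein treated with 10 μM compound for 30 min, heated for 3 min across 48°C-58°C, pooled and brought to 0.5% NP-40 at 4°C.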

[1] = compound: CCCS(=O)(=O)Nc1ccc(F)c(C(=O)c2c[nH]c3ncc(Cl)cc23)c1F
How it was run: as §1

barasertib = compound: CCN(CCCOc1ccc2c(Nc3cc(CC(=O)Nc4cccc(F)c4)[nH]n3)ncnc2c1)CCOP(=O)(O)O [barasertib]
How it was run: as §1

[2] = compound: CC[C@@H]1C(=O)N(C)c2cnc(Nc3ccc(C(=O)NC4CCN(C)CC4)cc3OC)nc2N1C1CCCC1
How it was run: as §1

volasertib = compound: CC[C@@H]1C(=O)N(C)c2cnc(Nc3ccc(C(=O)N[C@H]4CC[C@H](N5CCN(CC6CC6)CC5)CC4)cc3OC)nc2N1C(C)C [volasertib]
How it was run: as §1

[3] = compound: CCn1c(C(=O)N(C2CC2)C2CC2)cc2c3c(ncn3C)c(Nc3cc(C)n(C)n3)nc21
How it was run: as §1

[4] = compound: CCn1cc(-c2ccnc3[nH]c(-c4cccc(CN(C)C)c4)cc23)c(-c2ccc(NC(=O)N(C)C)cc2)n1
How it was run: as §1

[5] = compound: CN1CCC(CNc2ccc3ncc(-c4cccc(OC(F)(F)F)c4)n3n2)CC1
How it was run: as §1

saracatinib = compound: CN1CCN(CCOc2cc(OC3CCOCC3)c3c(Nc4c(Cl)ccc5c4OCO5)ncnc3c2)CC1 [saracatinib]
How it was run: as §1

sotrastaurin = compound: CN1CCN(c2nc(C3=C(c4c[nH]c5ccccc45)C(=O)NC3=O)c3ccccc3n2)CC1 [sotrastaurin]
How it was run: as §1

alvocidib = compound: CN1CC[C@H](c2c(O)cc(O)c3c(=O)cc(-c4ccccc4Cl)oc23)[C@H](O)C1 [alvocidib]
How it was run: as §1

Tubastatin A = compound: CN1CCc2c(c3ccccc3n2Cc2ccc(C(=O)NO)cc2)C1 [Tubastatin A]
How it was run: as §1

[6] = compound: CNC(=O)C1=CC=CC=C1NC2=NC(=NC=C2Cl)NC3=C(C=C(C=C3)N4CCOCC4)OC
How it was run: as §1

defactinib = compound: CNC(=O)c1ccc(Nc2ncc(C(F)(F)F)c(NCc3nccnc3N(C)S(C)(=O)=O)n2)cc1 [defactinib]
How it was run: as §1

[7] = compound: CNc1nc(-c2ccc3c(N)n[nH]c3c2)cc(N2C[C@@H](C(=O)NC3CCCCC3)CC[C@H]2C)n1
How it was run: as §1

encorafenib = compound: COC(=O)N[C@@H](C)CNc1nccc(-c2cn(C(C)C)nc2-c2cc(Cl)cc(NS(C)(=O)=O)c2F)n1 [encorafenib]
How it was run: as §1

[8] = compound: COC(=O)[C@H](CCSC)NC(=O)C1=C(C=C(C=C1)NC[C@H](CS)N)C2=CC=CC=C2
How it was run: as §1

alisertib = compound: COc1cc(Nc2ncc3c(n2)-c2ccc(Cl)cc2C(c2c(F)cccc2OC)=NC3)ccc1C(=O)O [alisertib]
How it was run: as §1

[9] = compound: COc1cc2nc(-c3cc(F)ccc3O)nc(N[C@@H]3CNC[C@H]3C(C)(C)O)c2cc1OC
How it was run: as §1

gefitinib = compound: COc1cc2ncnc(Nc3ccc(F)c(Cl)c3)c2cc1OCCCN1CCOCC1 [gefitinib]
How it was run: as §1

Measured: log2 fold change

NACC1 (UniProt Q96RE7)
inactive: vemurafenib -0.039 | [1] -0.003 | barasertib 0.039 | [2] -0.027 | volasertib 0.008 | [3] 0.004 | [4] -0.059 | [5] -0.003 | saracatinib -0.016 | sotrastaurin 0.034 | alvocidib -0.02 | Tubastatin A -0.086 | [6] 0.002 | defactinib -0.01 | [7] 0.016 | encorafenib 0.022 | [8] 0.024 | alisertib 0.018 | [9] -0.012 | gefitinib -0.019

MYO9B (UniProt Q13459)
inactive: vemurafenib 0.065 | [1] 0.03 | barasertib 0.049 | [2] 0.017 | volasertib -0.002 | [3] 0.048 | [4] -0.067 | [5] 0.081 | saracatinib -0.003 | sotrastaurin 0.048 | alvocidib -0.034 | Tubastatin A -0.08 | [6] -0.019 | defactinib 0.031 | [7] -0.012 | encorafenib 0.027 | [8] 0.159 | alisertib -0.007 | [9] -0.008 | gefitinib 0.016

NANS (UniProt Q9NR45)
inactive: vemurafenib -0.038 | [1] 0.007 | barasertib -0.046 | [2] -0.004 | volasertib -0.016 | [3] -0.001 | [4] -0.034 | [5] 0.027 | saracatinib -0.018 | sotrastaurin -0.057 | alvocidib -0.008 | Tubastatin A -0.024 | [6] -0.009 | defactinib -0.011 | [7] -0.037 | encorafenib 0.004 | [8] -0.03 | alisertib 0.032 | [9] 0 | gefitinib -0.024

NARF (UniProt Q9UHQ1)
inactive: vemurafenib 0.035 | [1] 0.035 | barasertib 0.028 | [2] 0.011 | volasertib 0.135 | [3] -0.025 | [4] -0.055 | [5] 0.014 | saracatinib 0.023 | sotrastaurin 0.049 | alvocidib 0.001 | Tubastatin A 0.011 | [6] 0.031 | defactinib -0.015 | [7] -0.014 | encorafenib 0.047 | [8] 0.003 | alisertib -0.021 | [9] -0.019 | gefitinib -0.007

MYO18A (UniProt Q92614)
inactive: vemurafenib 0.01 | [1] 0.006 | barasertib -0.01 | [2] 0.036 | volasertib -0.03 | [3] -0.004 | [4] -0.024 | [5] 0.022 | saracatinib -0.004 | sotrastaurin 0.01 | alvocidib 0 | Tubastatin A 0.003 | [6] -0.002 | defactinib 0.012 | [7] 0.043 | encorafenib -0.006 | [8] 0.006 | alisertib -0.018 | [9] 0.016 | gefitinib 0.009

MYADM (UniProt Q96S97)
inactive: vemurafenib -0.062 | [1] 0.014 | barasertib 0.075 | [2] 0.16 | volasertib -0.007 | [3] -0.054 | [4] -0.059 | [5] 0.039 | saracatinib 0.039 | sotrastaurin 0.001 | alvocidib -0.068 | Tubastatin A -0.045 | [6] 0.027 | defactinib -0.019 | [7] 0.007 | encorafenib 0.055 | [8] 0.01 | alisertib 0.016 | [9] -0.004 | gefitinib 0.008

NCS1 (UniProt P62166)
inactive: vemurafenib 0.014 | [1] 0 | barasertib 0.097 | [2] 0.013 | volasertib 0.009 | [3] -0.025 | [4] -0.182 | [5] 0.129 | saracatinib 0.024 | sotrastaurin 0.014 | alvocidib -0.055 | Tubastatin A 0.069 | [6] 0.007 | defactinib 0.046 | [7] -0.083 | encorafenib 0.001 | [8] 0.012 | alisertib -0.018 | [9] 0.016 | gefitinib -0.015

NCOA5 (UniProt Q9HCD5)
inactive: vemurafenib -0.133 | [1] 0.013 | barasertib 0.005 | [2] 0.048 | volasertib -0.002 | [3] -0.044 | [4] -0.087 | [5] -0.008 | saracatinib 0 | sotrastaurin -0.014 | alvocidib 0.003 | Tubastatin A -0.118 | [6] 0.002 | defactinib 0.071 | [7] 0.037 | encorafenib 0.063 | [8] -0.007 | alisertib 0.045 | [9] -0.006 | gefitinib 0.123
